Test results taken from publication PMC12730105, “The Interaction Between PGD2 and G6PD6 Is Involved in Aromatic Amino Acid Synthesis” (Biology, 2025).
Results are given in words; binding and its absence hold for the method and conditions named. Binding seen in cells or lysates may run through a third protein. Some entries that bind do so weakly or less than the wild type. Tags and fused reporters may be left off the sequences shown. Each block holds one binder with its values, some of them ahead of it.

Tests used:
[1] = biological target: T1, glucose-6-phosphate dehydrogenase 6 (G6PD6), full length, split-YFP fusion G6PD6-CYFP (Arabidopsis thaliana) (UniProt Q9FJI5); experiment: split reporter; BiFC with split YFP (pCNHP-CYFP and pCNHP-NYFP fusions), transient expression in N. benthamiana leaves by Agrobacterium infiltration, confocal microscopy 3 days after infiltration
T1 sequence: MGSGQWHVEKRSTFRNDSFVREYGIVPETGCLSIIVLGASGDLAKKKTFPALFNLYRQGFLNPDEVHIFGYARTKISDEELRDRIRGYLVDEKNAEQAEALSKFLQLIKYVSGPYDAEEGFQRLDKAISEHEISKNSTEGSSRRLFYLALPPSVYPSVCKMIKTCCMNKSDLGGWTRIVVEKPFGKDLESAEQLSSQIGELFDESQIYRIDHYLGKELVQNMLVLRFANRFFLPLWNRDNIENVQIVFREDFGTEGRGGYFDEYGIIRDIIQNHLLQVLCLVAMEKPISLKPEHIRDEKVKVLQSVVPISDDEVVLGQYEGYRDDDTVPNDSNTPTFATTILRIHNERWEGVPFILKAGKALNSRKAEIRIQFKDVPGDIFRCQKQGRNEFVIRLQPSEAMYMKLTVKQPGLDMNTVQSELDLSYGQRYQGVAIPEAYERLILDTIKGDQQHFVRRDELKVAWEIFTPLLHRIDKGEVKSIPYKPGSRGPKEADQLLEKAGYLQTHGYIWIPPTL

[2] = biological target: T2, G6PD6-GFP (35S::G6PD6-GFP) (Arabidopsis thaliana) (UniProt Q9FJI5); experiment: co-IP; 35S::PGD2-HA and 35S::G6PD6-GFP co-infiltrated in N. benthamiana leaves; extracts (50 mM Tris-HCl pH 7.5, 150 mM NaCl, 5 mM EDTA, 0.1% Triton X-100, 0.2% NP-40) incubated with GFP-nanobody magnetic beads at 4 °C for 3 h; blots with anti-HA and anti-GFP
T2 sequence: T1 sequence

- binding [1]: binds
B1: truncated PGD2 (sPGD2; lacking the N-terminal 15 amino acids), BiFC fusion (domain or fragment, UniProt Q9FWA3 16-486)
chain: MGQNLALNIAEKGFPISVYNRTTSKVDETVERAKKEGNLPLYGFHDPESFVKSIQKPRVIIMLVKAGSPVDQTIKTLSAYLEKGDCIVDGGNEWYENTERREKAVAENGFLYLGMGVSGGEEGARNGPSMMPGGSYEAYKNIEDIVLKVAAQVRDSGPCVTYIGKGGSGNFVKMVHNGIEYGDMQLIAEAYDVLKSVGKLSNEELHSVFSDWNKGELESFLVEITADIFGIKDDKGDGHLVDKVLDKTGMKGTGKWTVQQAAELSVPAPTIESSLDARFLSGLKDERVQAAKVFKAGGFGDILTDQKVDKKQLVDDVRKALYASKICSYAQGMNLIRAKSIEKGWGLKLGELARIWKGGCIIRAIFLDRIKQAYDRNAELANLLVDPEFAKEIIERQSAWRRVVCLAINSGISTPGMSASLAYFDSYRRERLPANLVQAQRDYFGAHTYERTDVEGSFHTEWFKIARQSKI

- binding [1]: binds
B2: 6-phosphogluconate dehydrogenase 2 (PGD2), full length, split-YFP fusion PGD2-NYFP (enzyme, UniProt Q9FWA3 1-486)
chain: MAVQPTRIGLAGLAVMGQNLALNIAEKGFPISVYNRTTSKVDETVERAKKEGNLPLYGFHDPESFVKSIQKPRVIIMLVKAGSPVDQTIKTLSAYLEKGDCIVDGGNEWYENTERREKAVAENGFLYLGMGVSGGEEGARNGPSMMPGGSYEAYKNIEDIVLKVAAQVRDSGPCVTYIGKGGSGNFVKMVHNGIEYGDMQLIAEAYDVLKSVGKLSNEELHSVFSDWNKGELESFLVEITADIFGIKDDKGDGHLVDKVLDKTGMKGTGKWTVQQAAELSVPAPTIESSLDARFLSGLKDERVQAAKVFKAGGFGDILTDQKVDKKQLVDDVRKALYASKICSYAQGMNLIRAKSIEKGWGLKLGELARIWKGGCIIRAIFLDRIKQAYDRNAELANLLVDPEFAKEIIERQSAWRRVVCLAINSGISTPGMSASLAYFDSYRRERLPANLVQAQRDYFGAHTYERTDVEGSFHTEWFKIARQSKI

- binding [2]: binds
B3: PGD2-HA (35S::PGD2-HA) (enzyme, UniProt Q9FWA3 1-486)
chain: B2 chain
